The values that follow come from US10828372B2, “Compositions and methods for the inhibition of fibrosis” (WISCONSIN ALUMNI RESEARCH FOUNDATION, priority 2017, dated 2020).

The series deals with human plasma FN. Kind of series: Isothermal Titration calorimetry (ITC) of peptide binding to fibronectin. The following applies: pH 7.4 PBS, 25° C. On the procedure: Isothermal Titration calorimetry (ITC): ITC experiments were performed using a VP-ITC microcalorimeter (MicroCal, LLC) with a cell volume of 2.2 mL. In a typical experiment, the cell was filled with 1.4 mL of 2 μM human plasma FN and the syringe was filled with 1 mL of 28 μM FUD or PEG-FUD peptides. The temperature was set to 25° C. The titration experiment was performed in 39 injections (1×1, 4×4, and 34×8 μL) delivered in 120 sec intervals. Prior to injection, both FN and the peptides were dialyzed in separate dialysis bags overnight into the same PBS buffer (pH 7.4) solution. Routine analysis involved discarding of the first data point and subtraction of peptide into PBS buffer control run. Data were fit using one set of sites model Lavenberg-Marquardt nonlinear regression in Origin 7.0.
The binding of 10 kDa, 20 kDa, and 40 kDa PEG-FUD to FN was studied using Isothermal Titration calorimetry (ITC). This technique was used to determine the thermodynamic parameters as well as the binding constant (Kd) of the interaction. The peptide was injected into a human plasma FN solution in PBS at pH 7.4 and 25° C. in triplicate runs. […] A Kd of 6 (±3) nM was detected for FUD:FN. […] Similar entropy change of −65 (±3) cal/mol, −74 (±7) cal/mol, −66 (±7) cal/mol, and −73 (±2) and enthalpy change of −31 (±1) kcal/mol, −34 (±2) kcal/mol, −30 (±1) kcal/mol, and −32.5 (±0.5) kcal/mol were detected for the interaction of FUD and 10 kDa, 20 kDa, and 40 kDa PEG-FUD with FN, respectively. […] This observation is contrary to the expectation of PEG attachment diminishing a drug's affinity for its binding partner and presents an unexpected but desired feature of the PEG-FUD peptide.
With “10 kDa PEG-FUD: FUD N-terminally mono-PEGylated with 10 kDa linear methoxy-PEG propionaldehyde (KDQSPLAGESGETEYITEVYGNQQNPVDIDKKLPNETGFSGNMVETEDT)”, the entropy change is given as −74 (±7) cal/mol, the ΔH is -34 kcal/mol and the ΔS was -0.074 kcal/mol.
For “20 kDa PEG-FUD: FUD N-terminally mono-PEGylated with 20 kDa linear methoxy-PEG propionaldehyde (KDQSPLAGESGETEYITEVYGNQQNPVDIDKKLPNETGFSGNMVETEDT)”, the entropy change was −66 (±7) cal/mol, the ΔH is -30 kcal/mol and the ΔS was -0.066 kcal/mol.
For the substance “40 kDa PEG-FUD: FUD N-terminally mono-PEGylated with 40 kDa branched methoxy-PEG propionaldehyde (KDQSPLAGESGETEYITEVYGNQQNPVDIDKKLPNETGFSGNMVETEDT)”, the entropy change is −73 (±2) cal/mol, the ΔH is -32.5 kcal/mol and the ΔS is -0.073 kcal/mol.
In the case of “FUD: 49 amino acid FUD peptide, SEQ ID NO: 1, recombinantly expressed, His-tag removed; inhibitor of fibronectin fibrillogenesis (KDQSPLAGESGETEYITEVYGNQQNPVDIDKKLPNETGFSGNMVETEDT; human) [reference compound]”, the entropy change was −65 (±3) cal/mol, the ΔH is -31 kcal/mol and the ΔS was -0.065 kcal/mol.
